Results are given in words; binding and its absence hold for the method and conditions named. Some entries that bind do so weakly or less than the wild type.
Target: PTEN fused to Renilla luciferase (UniProt P60484)
Test: LUMIER; automated luminescence-based mammalian interactome screen; Renilla luciferase-PTEN as bait against a collection of eighty 3Flag-tagged preys; luminescence intensity ratio, average of two independent screens

By UniProt entry, the sequences of proteins in these tests, tags left out.
UniProt P60484: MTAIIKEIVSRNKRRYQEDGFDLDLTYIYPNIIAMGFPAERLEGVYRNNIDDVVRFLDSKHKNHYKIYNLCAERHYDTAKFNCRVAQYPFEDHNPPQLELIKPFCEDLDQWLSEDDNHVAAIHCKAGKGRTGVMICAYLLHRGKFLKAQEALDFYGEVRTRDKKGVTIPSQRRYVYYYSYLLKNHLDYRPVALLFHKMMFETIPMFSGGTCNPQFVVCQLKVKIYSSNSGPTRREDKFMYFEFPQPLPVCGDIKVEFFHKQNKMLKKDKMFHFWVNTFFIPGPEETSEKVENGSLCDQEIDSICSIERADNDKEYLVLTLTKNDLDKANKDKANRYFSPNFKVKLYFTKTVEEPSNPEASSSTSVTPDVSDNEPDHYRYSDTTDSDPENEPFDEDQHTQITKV
UniProt O00459: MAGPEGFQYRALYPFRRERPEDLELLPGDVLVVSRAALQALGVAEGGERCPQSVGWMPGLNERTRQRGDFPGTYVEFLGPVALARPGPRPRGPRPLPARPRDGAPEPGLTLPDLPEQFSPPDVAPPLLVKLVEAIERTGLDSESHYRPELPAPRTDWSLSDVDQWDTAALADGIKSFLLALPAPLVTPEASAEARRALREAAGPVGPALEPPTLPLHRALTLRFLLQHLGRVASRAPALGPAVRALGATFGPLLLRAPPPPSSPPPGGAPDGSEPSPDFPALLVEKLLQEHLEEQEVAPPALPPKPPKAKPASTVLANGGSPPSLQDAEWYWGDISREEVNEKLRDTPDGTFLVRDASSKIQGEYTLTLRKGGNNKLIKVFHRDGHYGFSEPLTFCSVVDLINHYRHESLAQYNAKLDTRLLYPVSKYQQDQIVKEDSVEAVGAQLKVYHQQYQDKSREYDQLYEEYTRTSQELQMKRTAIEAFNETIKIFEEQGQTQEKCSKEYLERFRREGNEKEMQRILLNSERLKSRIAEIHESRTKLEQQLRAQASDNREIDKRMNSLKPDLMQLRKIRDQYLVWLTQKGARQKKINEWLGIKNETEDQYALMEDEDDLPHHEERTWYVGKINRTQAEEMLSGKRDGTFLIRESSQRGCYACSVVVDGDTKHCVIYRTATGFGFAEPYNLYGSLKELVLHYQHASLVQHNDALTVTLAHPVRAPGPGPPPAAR

Substance: 3Flag-tagged PIK3R2 (LUMIER prey) (from UniProt O00459 1-728)
- binding: binds

From PMC4598566
